In publication PMC13163009, “Pyrimethamine Restores KEAP1-Mediated Degradation of Select NRF2 Mutants in Esophageal Squamous Cell Carcinoma” (Cancers, 2026):
No constants are given. Whether binding was seen depends on the method and setting. Some binding calls cover weakened binding; strength is not graded here.

Protein sequences, listed by entry. Tags and fused reporters are not part of them. Residues count along the entry.
UniProt Q14145, residues 321-611: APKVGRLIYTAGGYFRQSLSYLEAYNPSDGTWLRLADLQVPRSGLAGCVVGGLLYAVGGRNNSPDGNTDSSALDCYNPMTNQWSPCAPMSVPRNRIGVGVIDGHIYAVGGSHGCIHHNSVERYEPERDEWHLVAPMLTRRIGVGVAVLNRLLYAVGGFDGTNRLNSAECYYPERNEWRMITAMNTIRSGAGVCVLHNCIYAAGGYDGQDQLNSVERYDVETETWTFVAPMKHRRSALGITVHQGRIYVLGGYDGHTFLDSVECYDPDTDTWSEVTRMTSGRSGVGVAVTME

Target: Kelch fragment (Ala321-Glu611 of human KEAP1 protein) (human) (UniProt Q14145)
Assay: SPR; Biacore S200; biotinylated Kelch immobilised on a streptavidin chip; DLG peptides as analytes, 2-fold dilutions from 200 uM to 0.39 uM; 30 uL/min, 90 s association, 180 s dissociation; analysis at 15 °C; also run with PYR mixed into the analyte with the DLG peptides; both purified

binding: binds weakly
Binder: MDLIDILCRQDIDLGVSREVFDFS [DLG^W24C peptide (NRF2 residues 17-40 with W24C)]
